From PubChem BioAssay AID2685 (National Center for Advancing Translational Sciences (NCATS), 2010)
Some of the results follow. Further columns of the screen follow, without active or inactive calls. The list favours compounds with an active or inconclusive main result. Potencies come from curve fits of mixed quality, noted in brackets.

Experiment: qHTS Assay for Lipid Storage Modulators in Drosophila S3 Cells;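 as to cell number change: cells counted by Cell Tracker Red CMTPX staining in the red channel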
Details: BODIPY lipid droplet fluorescence, 18-24 h; for cell number change: measured here: cell count max response, cells fed with added oleic acid
In short: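 Laser-scanning cytometry quantifies lipid droplet accumulation (500–530 nm total intensity; droplet/cell object ratio) in oleic acid-fed (400 uM added) Drosophila S3 cells treated with a concentration series. 20 uM Triacsin C defined 100% inhibition.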

[1] = measured here: lipid fluorescence (Fed channel) AC50, cells fed with added oleic acid
[2] = measured here: cell number channel AC50, cells fed with added oleic acid

## COCCN(Cc1cn[nH]c1-c1ccc2cc(OC)ccc2c1)C(C)C
  cell number change: -0.549%
[1]
  AC50: 20600 nM [rising, partial curve]

## CC(=O)N1c2c(cc(Br)cc2S(=O)(=O)NCc2ccc(C)cc2)CC1C (stereo not given)
  cell number change: 25.7%
[1]
  AC50: 580 nM [falling, single point]

## COc1ccc(-c2nn3cnnc3s2)cc1OC
  cell number change: 37.8%
[2]
  AC50: 18400 nM [rising, single point]

## Cc1c(C(=O)Nc2cnccn2)oc2ccccc12
[1]
  AC50: 580 nM [rising, single point]

## Cc1ccccc1N1CCN(C(=O)[C@@H]2CCCN2C2=NS(=O)(=O)c3ccccc32)CC1
  cell number change: -20.1%
[1]
  AC50: 1640 nM [rising, partial curve]

## O=C(N/N=C/c1ccc2c(c1)OCO2)c1sc2cccc(Cl)c2c1Cl
  cell number change: 41.6%
[2]
  AC50: 29100 nM [rising, single point]
[1]
  AC50: 103 nM [rising, full curve, poor fit]

## CCCC(=O)NCCCc1nc2ccccc2n1CC
  cell number change: -75.5%
[2]
  AC50: 1840 nM [falling, partial curve]
[1]
  AC50: 2060 nM [falling, partial curve]

## COc1ccc(/C=C2/C(=O)N(c3cccc(F)c3)N=C2C)c(OC)c1
  cell number change: -10.9%

## Cc1ccc(C)c(NC(=O)CN(C)C(=O)CN2C(=O)C3CCCCC3C2=O)c1 (stereo not given)
  cell number change: 38.1%
[2]
  AC50: 29100 nM [rising, single point]

## CCN(CC)CCSc1nc(O)c(-c2ccccc2)c(=O)n1-c1ccccc1
  cell number change: 91.7%

## CC(C)(C)C(C(=O)Oc1ccccc1)c1ccccc1 (stereo not given)
  cell number change: 7.44%
[1]
  AC50: 651 nM [rising, full curve, poor fit]

## O=C(CCNC(=O)c1ccccc1)N/N=C/c1ccc([N+](=O)[O-])cc1
[2]
  AC50: 2910 nM [rising, single point]
[1]
  AC50: 146 nM [falling, full curve, poor fit]

## O=C1CC(Sc2ncccc2C(=O)O)C(=O)N1 (stereo not given)
  cell number change: -49.4%
[2]
  AC50: 16400 nM [falling, single point]
[1]
  AC50: 103 nM [falling, full curve, poor fit]

## O=C1CCC(=O)N1c1ccc(NCCc2cccc(F)c2)c([N+](=O)[O-])c1
  cell number change: 14.6%
[1]
  AC50: 11.6 nM [rising, full curve, poor fit]

## CCOC(=O)c1ccc(NC(=O)CC2C(=O)N(c3cccc(OC)c3)C(=O)N2CCOC)cc1 (stereo not given)
  cell number change: 26.3%

## Cc1ccc(NC(=O)[C@H](CC(C)C)NC(=O)[C@@H]2Cc3ccccc3CN2)cc1
  cell number change: -33.8%
[2]
  AC50: 29100 nM [falling, single point]

## CC(=O)Nc1ccc(S(=O)(=O)NNC(=O)c2ccc(C)cc2)cc1
[1]
  AC50: 651 nM [rising, single point]

## Cc1ccc(C)c(S(=O)(=O)Nc2ccc(C(=O)NCC(c3ccco3)N(C)C)cc2)c1 (stereo not given)
  cell number change: 96.8%
[2]
  AC50: 14600 nM [rising, partial curve]

## CCc1noc(C)c1C(=O)Nc1ccc(Cl)c(S(=O)(=O)N2CCCCC2)c1
  cell number change: 175%
[2]
  AC50: 23100 nM [rising, partial curve]

## CC(C)(Cc1ccc(O)cc1)NC(=O)CC(=O)N=Nc1c(O)[nH]c2ccc(Br)cc12
  cell number change: -7.51%

## CC(=O)c1cccc(NC(=O)CCCOc2ccc(C)cc2)c1
[1]
  AC50: 92 nM [falling, full curve, poor fit]

## O=C(CCl)N(c1ccccc1)c1c[nH]c2ccccc12
  cell number change: -23.4%

## Clc1ccc(CNc2ccc(N3CCN(Cc4ccccc4)CC3)cc2)cc1
  cell number change: -48.6%
[2]
  AC50: 16400 nM [falling, partial curve, poor fit]
[1]
  AC50: 29100 nM [falling, single point]

## CSc1ccc(C2CC(=O)Nc3nc(SC)[nH]c(=O)c32)cc1 (stereo not given)
  cell number change: 12.5%

## S=c1[nH]nc(-c2ccccc2)n1Cc1ccccc1
  cell number change: 21.6%
[1]
  AC50: 3660 nM [rising, partial curve]

## CCCNC(=O)c1ccc(N2CCC3(CC2)CC(c2ccccc2)=NO3)c([N+](=O)[O-])c1
  cell number change: 7.19%
[1]
  AC50: 130 nM [falling, full curve, poor fit]

## Cc1ccccc1NC(=O)COC(=O)CCC(=O)c1cccs1
[2]
  AC50: 5.8 nM [falling, full curve, poor fit]

## Cc1ccc(C)c(S(=O)(=O)N2CCCCC2CCNC(=O)C(=O)NCc2ccccn2)c1 (stereo not given)
[2]
  AC50: 2310 nM [falling, single point]
[1]
  AC50: 7310 nM [falling, partial curve]

## Cc1nc2c(c(=O)n1CCC(C)C)c1nc3ccccc3nc1n2Cc1ccc2c(c1)OCO2
  cell number change: 23.6%
[1]
  AC50: 651 nM [rising, single point]

## Cc1cc(=O)n2nc(-c3ccccc3)sc2c1C#N
  cell number change: -5.98%
[1]
  AC50: 517 nM [rising, full curve, poor fit]

## O=C(c1c(F)cccc1F)N1CCCC(c2nc(-c3ccc(F)cc3)no2)C1 (stereo not given)
  cell number change: 4.4%
[1]
  AC50: 29100 nM [falling, single point]

## Cc1cccc(/C=C2/Sc3ccc(C(=O)NCCCN4CCOCC4)cc3NC2=O)c1
  cell number change: -26.2%
[1]
  AC50: 29100 nM [falling, single point]

## CCCCn1c(SCC(=O)N2CCCC2)nnc1-c1ccccc1
[2]
  AC50: 2910 nM [rising, partial curve]

## Cc1c(NC(=O)/C(C#N)=C/c2ccc(-c3cc(Cl)ccc3Cl)o2)c(=O)n(-c2ccccc2)n1C
  cell number change: 105%
[2]
  AC50: 11600 nM [rising, partial curve, poor fit]
[1]
  AC50: 291 nM [rising, full curve]

## COC(=O)C(NC(C)=O)(Nc1nc2ccc(C)cc2s1)C(F)(F)F (stereo not given)
  cell number change: -2.86%
[2]
  AC50: 731 nM [falling, full curve]
[1]
  AC50: 651 nM [falling, full curve]

## C=CCNc1oc(-c2ccc(OC)cc2)nc1C#N
  cell number change: 109%
[2]
  AC50: 13000 nM [rising, partial curve]
[1]
  AC50: 2910 nM [rising, partial curve, poor fit]

## Cc1nnc(NS(=O)(=O)c2ccc(N)cc2)s1
  cell number change: 8.99%
[1]
  AC50: 1300 nM [falling, full curve, poor fit]

## CC(C(=O)Nc1cccc(S(=O)(=O)N2CCOCC2)c1)N1CCN(C)CC1 (stereo not given)
  cell number change: -11.3%
[2]
  AC50: 5.17 nM [falling, full curve, poor fit]

## Cc1cccc(N=Nc2ccc(O)c3ncccc23)c1
  cell number change: 37.8%
[2]
  AC50: 29100 nM [rising, single point]
[1]
  AC50: 10300 nM [falling, partial curve, poor fit]

## Cc1nn(C)c(C)c1CNC(=O)Nc1ccc2c(c1)OCO2
[2]
  AC50: 580 nM [rising, single point]

## CCN(CC)S(=O)(=O)c1ccc(NC(=O)c2ccc(NS(C)(=O)=O)cc2)cc1
  cell number change: 3.05%
[1]
  AC50: 6510 nM [rising, partial curve]

## COc1cccc(-c2c(C(=O)N/N=C/C3CC=CCC3)nnn2-c2nonc2N)c1 (stereo not given)
  cell number change: 32.5%

## C=CCNC(=O)C1CCCN(S(C)(=O)=O)C1 (stereo not given)
  cell number change: 11.6%
[1]
  AC50: 58 nM [rising, full curve, poor fit]

## O=C(NCC1CCCO1)c1cc([N+](=O)[O-])ccc1N1CCC(Cc2ccccc2)CC1 (stereo not given)
  cell number change: -13.3%
[1]
  AC50: 5.17 nM [rising, full curve, poor fit]

## CCc1c(C)nc2nc(SCc3ccccc3Cl)[nH]n2c1=O
[2]
  AC50: 731 nM [rising, single point]

## CCCC(=O)Nc1ccc(C(=O)NCC2CCCO2)cc1 (stereo not given)
  cell number change: 15.2%
[1]
  AC50: 1460 nM [falling, partial curve]

## Cc1nc(C)c(C(=O)C2=C(O)C(=O)N(CCN3CCOCC3)C2c2ccco2)s1 (stereo not given)
  cell number change: -12.2%
[1]
  AC50: 3260 nM [falling, single point]

## O=C(Nc1ccc(F)cc1)C1CCCCC1
  cell number change: -89.8%
[2]
  AC50: 20600 nM [falling, partial curve, poor fit]
[1]
  AC50: 29100 nM [falling, single point]

## Cc1ccccc1C(=O)NC(NCc1ccco1)C(Cl)(Cl)Cl (stereo not given)
  cell number change: -1.53%

## O=C(CCNS(=O)(=O)c1c(Cl)cccc1Cl)N1CCCC1
  cell number change: -20.5%
[1]
  AC50: 259 nM [falling, full curve, poor fit]

## COc1ccc(CCC(=O)Nc2ccc(C(=O)c3ccncc3)cc2)cc1
  cell number change: -15.7%
[1]
  AC50: 291 nM [falling, partial curve, poor fit]

## CC1CCN(C(=O)c2ccccc2NC(=O)c2cccs2)CC1
  cell number change: -35.1%
[2]
  AC50: 29100 nM [falling, partial curve, poor fit]
[1]
  AC50: 29100 nM [rising, single point]

## CC(=O)Nc1ccc(C(=O)Nc2ccc(S(=O)(=O)Nc3nccc(C)n3)cc2)cc1
  cell number change: 28.5%
[1]
  AC50: 29100 nM [rising, single point]

## O=C(COc1ccc(S(=O)(=O)N2CCOCC2)cc1Cl)N1CCOCC1
  cell number change: 14.1%

## CC(C)(C)NC(=O)CSc1nc(O)cc(=O)n1-c1ccccc1
  cell number change: -12.2%

## CCOc1ccc(S(=O)(=O)Nc2ccc(S(=O)(=O)N3CCOCC3)cc2)cc1
  cell number change: -21.2%

## Cn1c2cc(Br)sc2c2cnn(Cc3c(F)cccc3Cl)c(=O)c21
  cell number change: 35.5%
[2]
  AC50: 32600 nM [rising, single point]
[1]
  AC50: 820 nM [rising, partial curve]

## COc1ccc(-n2nnnc2SC(C)C(=O)NC2CCCC2)cc1 (stereo not given)
  cell number change: 2.44%
[1]
  AC50: 32.6 nM [falling, full curve, poor fit]

## Cc1nnsc1NC(=O)OCCCl
  cell number change: -18.1%
[1]
  AC50: 6510 nM [falling, single point]

## COC(=O)c1ccccc1S(=O)(=O)Nc1ccc(OC)nc1
  cell number change: 22.7%

## O=C(Oc1ccc2ccc(OC(=O)N3CCCCCC3)cc2c1)N1CCCCCC1
  cell number change: -11.2%
[2]
  AC50: 1640 nM [rising, partial curve]
[1]
  AC50: 2060 nM [rising, partial curve]
